From the supplement of paper PMC6078165
The reference is the same well before dosing, and untreated signal decays as well.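 Fibroblast labels name human fibroblasts: mostly primary ones from tissues such as uterus (C12385, HUF), lung (H6013), bone (Hs27A), adrenal (HADF) and skin (WS1), plus mammary HMF and breast cancer-associated Hs343T. The cancer cells are basal-like or mesenchymal-like triple-negative breast cancer lines. The paper calls a changed response a hit when it shifts by more than 3x the replicate standard deviation. The tissue of the other fibroblasts is not given here.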

System: MDAMB231
Assay: relative JC-1 red fluorescence (viability) vs pre-drug, coculture with fibroblast (fraction); higher = more viable cancer cells
Settings: 1 µM
Procedure: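 JC-1 labelled TNBC cells cocultured 1:1 (1,500 cells each) with CellTrace Violet stained primary or stromal fibroblasts in 384-well plates in FluoroBrite medium, treated with one of 42 anticancer drugs at 0.1, 1, 10 or 100 uM. JC-1 red fluorescence (mitochondrial integrity in cancer cells only) was read by plate reader every 8 h for 72 h. Values are normalised to each well's pre-drug value. The stock of one drug was tenfold lower, so its dose labels may be too high.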

O=C(O)C(=O)O.[NH-][C@@H]1CCCC[C@H]1[NH-].[Pt+2] [Oxaliplatin]
relative JC-1 red fluorescence
Settings | 8 h | 16 h | 24 h | 32 h | 40 h | 48 h | 56 h | 64 h | 72 h
coculture fibroblast: C12385 | 0.744 | 0.7066 | 0.597 | 0.579 | 0.507 | 0.474 | 0.431 | 0.421 | 0.397
coculture fibroblast: H6013 | 0.884 | 0.8067 | 0.7687 | 0.73 | 0.681 | 0.6354 | 0.616 | 0.579 | 0.5405
coculture fibroblast: H6019 | 0.768 | 0.679 | 0.632 | 0.623 | 0.581 | 0.565 | 0.525 | 0.509 | 0.474
coculture fibroblast: H6076 | 0.896 | 0.8 | 0.761 | 0.734 | 0.703 | 0.669 | 0.641 | 0.624 | 0.617
coculture fibroblast: H6231 | 0.859 | 0.918 | 0.879 | 0.82 | 0.787 | 0.762 | 0.753 | 0.737 | 0.727
coculture fibroblast: HADF | 0.8901 | 0.817 | 0.772 | 0.721 | 0.686 | 0.634 | 0.613 | 0.589 | 0.533
coculture fibroblast: HCFa | 0.895 | 0.83116 | 0.794 | 0.7586 | 0.7227 | 0.6784 | 0.6454 | 0.615 | 0.56
coculture fibroblast: HCPF | 0.916 | 0.786 | 0.684 | 0.627 | 0.5632 | 0.5098 | 0.458 | 0.435 | 0.41
coculture fibroblast: HHSteC | 0.928 | 0.874 | 0.817 | 0.772 | 0.72 | 0.678 | 0.63 | 0.608 | 0.56235
coculture fibroblast: HMF | 0.862 | 0.741 | 0.663 | 0.617 | 0.564 | 0.519 | 0.479 | 0.457 | 0.434
coculture fibroblast: HPFa | 0.9302 | 0.87619 | 0.7974 | 0.7416 | 0.693 | 0.65 | 0.591 | 0.5537 | 0.4965
coculture fibroblast: HUF | 0.862 | 0.728 | 0.788 | 0.665 | 0.615 | 0.598 | 0.546 | 0.551 | 0.538
coculture fibroblast: Hs5 | 0.926 | 0.824 | 0.755 | 0.703 | 0.654 | 0.597 | 0.555 | 0.523 | 0.499
coculture fibroblast: Hs27A | 0.8893 | 0.84054 | 0.778 | 0.756 | 0.7 | 0.623 | 0.634 | 0.604 | 0.548
coculture fibroblast: Hs343T | 0.903 | 0.791 | 0.709 | 0.678 | 0.625 | 0.584 | 0.541 | 0.519 | 0.497
coculture fibroblast: WS1 | 0.741 | 0.674 | 0.553 | 0.54434 | 0.49 | 0.452 | 0.3966 | 0.3853 | 0.363
